Measured values: PubChem BioAssay AID1347431 (National Center for Advancing Translational Sciences (NCATS), 2020)
Values joined by “and” are separate entries in the source; they are usually repeats but may differ in a detail not shown here. Equal values may be shown once. Fewer than 10 of roughly 1,200 compounds were called active. Calls follow the shape of the dose curve; as a rule, active = well fitted curve in the direction sought with a large enough effect; inconclusive = small, poorly fitted or top-dose-only effect, or another doubt; inactive = no such curve, though single readings can be large or run the other way. This is one part of the list.

Assay: Confirmatory qHTS assay for inhibitors of Activation Induced Cytidine Deaminase (AID): UDG signals; also: 0% is about no effect
Settings: UDG coupled enzyme activity counter-screen; at 115 µM (top of the series) unless noted
Outline: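 UDG readout, a counterscreen: AID (1 uM, 4/3x) plus UDG (2 U/mL, 4/3x) preincubated 10 min with compound (7.32 nM - 114 uM final), then 4 h with DJC20/DJC23 substrates at room temperature; NaOH added, fluorescence read at 560/665 nm.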

Structure (SMILES) | activity change, negative = inhibition
Cc1ccc(C)c(Nc2nn3c(=O)c4ccc(C(=O)NCc5cccs5)cc4nc3s2)c1 | inactive: -7.32%
CCCN(CCC)CCCNC(=O)c1cn(CC)c2ccc(S(=O)(=O)N3CCc4ccccc4C3)cc2c1=O | inactive: -12.6%
O=C(Cc1ccccc1F)N1CCC(c2nc3c(nnn3Cc3cccc(Cl)c3)c(=O)[nH]2)CC1 | inactive: 6.48%
COc1ccc(-n2cc(-c3ccccc3)c3c(NCCc4ccc(OC)c(OC)c4)ncnc32)cc1 | inactive: 3.75%
CCCCCCCCc1ccc(-c2ccc(C(=O)O)cc2)cc1 | inactive: -2.26% and inactive: -1.29%
Cc1ccccc1OCC(=O)N(Cc1ccc(C(C)C)cc1)C1CCS(=O)(=O)C1 (stereo not drawn) | inactive: -3.95%
COc1cc2c(cc1OC)C(COc1ccc(C(C)C)cc1)N(C(=O)COc1ccccc1)CC2 (stereo not drawn) | inactive: -8.68%
Cc1cccc(N2CCN(C(=O)C3CCN(c4ncnc5c4nc4n5CCCCC4)CC3)CC2)c1C | inactive: -5.04%
Cc1cccc(Cn2c(=O)n3nc(-c4ccccc4)nc3c3ccccc32)c1 | inactive: -4.8%
CCOc1ccc(Nc2sc(C(=O)c3ccc(F)cc3)c(N)c2S(=O)(=O)c2ccc(C)cc2)cc1 | inactive: -3.57%
Cc1cccc(NC(=O)CC2Nc3cccc4cccc(c34)NC2=O)c1 (stereo not drawn) | inactive: -9.66%
Cc1nc2nc(SCC(=O)N(C)Cc3ccccc3)nn2c(C)c1Cc1ccccc1Cl | inactive: -4.76%
COc1ccc2c(c1)Cc1sc(NC(=O)c3ccccc3C)nc1-2 | inactive: 4.61%
CCCCOc1ccc(C(=O)NCC(c2ccc(Cl)cc2)N2CCOCC2)cc1 (stereo not drawn) | inactive: 6.3%
Cc1ccc(S(=O)(=O)C(CNC(=O)COc2ccccc2)c2cccs2)cc1 (stereo not drawn) | inactive: -5.17%
Cc1ccccc1CN1C(=O)c2ccccc2Sc2ccc(C(=O)O)cc21 | inactive: 7.26%
CCOC(=O)c1ccc(NC(=O)CC2Nc3cccc4cccc(c34)NC2=O)cc1 (stereo not drawn) | inactive: 1.73%
CCOc1ccccc1NC(=O)Nc1ccc2nc(N3CCN(C)CC3)cc(C)c2c1 | inactive: -3.46%
O=C(CN(c1ccc(Cl)c(C(F)(F)F)c1)S(=O)(=O)c1ccccc1)Nc1cccnc1 | inactive: 5.24%
COC(=O)c1cc(Cl)ccc1NC(=O)CSc1ncc(S(=O)(=O)c2ccc(Br)cc2)c(=O)[nH]1 | inactive: 0.448%
CCOC(=O)c1cnc2ccc(C)cc2c1Nc1ccc(N(CC)CC)cc1 | inactive: -13.4%
CCN1CCN(c2cc(C)c3cc(NC(=O)/C=C/c4cccc(Cl)c4)ccc3n2)CC1 | inactive: 2.14%
COc1cccc(C2CC(=O)N3CN(C4CCCCC4)CSC3=C2C#N)c1 (stereo not drawn) | inactive: -0.724%
COc1ccc(CCNC(=O)c2nn(C)c3c2CSc2ccccc2-3)cc1OC | inactive: -6.28%
COc1cccc(-n2c(SCC(=O)Nc3cccc(C)c3)nc3c([nH]c4ccccc43)c2=O)c1 | inactive: -2.78%
Cc1ccccc1C(=O)Nc1sc2c(c1C(=O)O)CCC(C(C)(C)C)C2 (stereo not drawn) | inactive: -0.45%
CCC1CCCCN1CCCNC(=O)c1cn(CC)c2ccc(S(=O)(=O)N(C)C3CCCCC3)cc2c1=O (stereo not drawn) | inactive: -0.267%

Some of these compounds in order of molar mass, smallest number first:
Structure (SMILES) | activity change, negative = inhibition
O=C(CN(c1ccc(Cl)c(C(F)(F)F)c1)S(=O)(=O)c1ccccc1)Nc1cccnc1 | inactive: 5.24%
COc1cccc(-n2c(SCC(=O)Nc3cccc(C)c3)nc3c([nH]c4ccccc43)c2=O)c1 | inactive: -2.78%
CCOc1ccc(Nc2sc(C(=O)c3ccc(F)cc3)c(N)c2S(=O)(=O)c2ccc(C)cc2)cc1 | inactive: -3.57%

Additional structures follow:

Structure (SMILES) | activity change, negative = inhibition
COc1cc(NC(=O)CCc2c(C)nc3c4c(C)cc(C)nc4nn3c2C)cc(OC)c1 | inactive: 3.35%
O=C(NCCc1ccccc1)c1ccc2c(c1)CCN2S(=O)(=O)c1ccccc1 | inactive: -8.15%
Nc1ccc2oc(Cc3ccc(Cl)cc3)nc2c1 | inactive: -1%
COc1ccc(N(C)C(=O)c2cc3c(s2)-c2ccccc2OC3)cc1 | inactive: -11.3%
O=C(c1ccc(Cl)cc1)c1cn(Cc2ccccc2)c2cc3c(cc2c1=O)OCCO3 | inactive: -1.61%
CCOC(=O)C1=C(CN2CCN(c3cc(C)ccc3C)CC2)NC(=O)NC1c1ccccc1 (stereo not drawn) | inactive: -4.59%
Cc1ccc(NCc2nc3ccccc3n2CCOc2ccccc2C)cc1 | inactive: -1.46%
Cc1cc(Nc2cccc(F)c2)n2nc(-c3ccco3)nc2n1 | inactive: -1.28%
Cc1ccc2oc(=O)n(CCCOc3ccccc3Cl)c2c1 | inactive: -2.09%
Cc1cc(Nc2cccc(C(F)(F)F)c2)nc2ccc(NC(=O)c3cccc(Cl)c3)cc12 | inactive: -10.8%
Cn1nnnc1SCCNCc1cc(Br)ccc1OCc1ccccc1Cl | inactive: -14.9%
COc1cccc(NC(=O)Cn2cc(C(=O)c3ccc(C)cc3)c(=O)c3cc(OC)ccc32)c1 | inactive: 0.647%
CC(C)(C)c1ccc(OCC(=O)NCC2(N3CCOCC3)CCCCC2)cc1 | inactive: -6.27%
CCc1ccc(NC(=O)CSc2nc(-c3cccc(OC)c3)nc3c2Cc2c(CO)cnc(C)c2O3)cc1 | inactive: 3.85%
COc1ccc(OC)c(CNC(=O)c2nn(C)c3c2CS(=O)(=O)c2ccccc2-3)c1 | inactive: 6.53%
CCCCN(CC)C(=O)c1nn(-c2ccc(OC)cc2)c(=O)c2c1c1ccccc1n2C | inactive: -1.94%
Cc1cc(C)c2c(CC(=O)N(Cc3ccc(Cl)cc3)Cc3ccco3)coc2c1 | inactive: 2.44%
Cc1ccc(NC(=O)Cn2nc(Cc3ccncc3)c3ccccc3c2=O)c(Cl)c1 | inactive: 12.6%
CC(C)c1ccc(S(=O)(=O)c2cnc(SCC(=O)Nc3ccc4c(c3)OCCO4)[nH]c2=O)cc1 | inactive: 9.75%
Oc1ccc(NCc2ccccc2OCc2ccc(Cl)cc2)cc1 | inactive: -21.4%
CCOc1ccc(CCNC(=O)c2cn(CC)c3ccc(S(=O)(=O)N4CCCCCC4)cc3c2=O)cc1OCC | inactive: -15.9%
N=c1n(CCN2CCCCC2)c2ccccc2n1CC(O)COc1ccc(Cl)cc1Cl (stereo not drawn) | inactive: -4.14%
O=C(CC1N=C2c3ccccc3N=C(SCc3ccccc3F)N2C1=O)NCc1ccc2c(c1)OCO2 (stereo not drawn) | inactive: 1.74%
O=C(NCCc1nc2ccccc2n1CCCOc1ccc(Cl)cc1)C1CCCCC1 | inactive: -5.51%
Fc1ccc(Cn2c(-c3cccc(Br)c3)nc3ccccc32)cc1 | inactive: -6.83%
CCn1c(=O)c2cc(C(=O)NCCCN3CCC(C)CC3)sc2c2ccccc21 | inactive: -5.82%
